Data reported in patent US20100310528.
For at least one entry, the source does not settle the construct or the ends of the probe. Protein sequences can lack the tags named with them.

Test system: T1, R391 integrase (IntR391), native (ICE R391 (IncJ element))
T1 sequence (limits assumed): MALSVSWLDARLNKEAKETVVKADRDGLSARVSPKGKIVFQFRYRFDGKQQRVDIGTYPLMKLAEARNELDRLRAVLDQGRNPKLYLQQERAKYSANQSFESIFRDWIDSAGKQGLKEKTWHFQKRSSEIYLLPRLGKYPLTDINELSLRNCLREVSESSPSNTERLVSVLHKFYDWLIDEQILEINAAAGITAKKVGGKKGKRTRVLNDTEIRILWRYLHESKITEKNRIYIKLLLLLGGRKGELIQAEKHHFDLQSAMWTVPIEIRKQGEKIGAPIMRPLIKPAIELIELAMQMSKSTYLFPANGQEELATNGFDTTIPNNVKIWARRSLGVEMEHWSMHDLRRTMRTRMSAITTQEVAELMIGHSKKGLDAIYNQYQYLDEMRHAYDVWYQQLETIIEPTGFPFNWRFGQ
Assay: activity in cells
Details: integration of pBT-attP (and pSC101ts-attP) into prfC attB in E. coli after IPTG induction; junction PCR and sequencing; none without integrase; protein in cells; only the site is given

## ATAAGCGAAGGACCTTTGCTATCATCTCTCACCCTGATGCCGCCCAGCCT (double strand) [attP R391]
  activity on this sequence: active
